Values from PubChem BioAssay AID504808 (Drosophila RNAi Screening Center, 2011)
Test: 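Fly genes required to hold E2F transcription in check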 (primary screen). System: Drosophila S2 cells. Reagents: long dsRNA against Drosophila genes. Measurement: 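Firefly luciferase driven by E2F sites, normalised to Renilla luciferase on the same minimal promoter, measured by plate reader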. Scale: E2F firefly: higher = more E2F reporter activity; Renilla normaliser: higher = more normaliser reporter signal. Hit rule: 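Called active if the normalised E2F reporter went up by over 50%; the cutoff is arbitrary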.
In all, the deposit lists about 21,000 reagents; this is an unselected part of those that have a named target and a result. Of all reagents, 18 (0.084%) were called active. 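Raw counts without plate normalisation, one of two replicates; the ratio scores behind the calls were not deposited.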 A plus sign joins genes that one reagent is predicted to hit. Not stated in the record: the amount of reagent, the time to read-out.

Tep5Psi [DRSC02183]: E2F firefly, rep 1 = 1.01e5; Renilla normaliser, rep 1 = 4164; outcome = inactive
Tep5Psi [DRSC02184]: E2F firefly, rep 1 = 92643; Renilla normaliser, rep 1 = 3777; outcome = inactive
CG13581 [DRSC04216]: E2F firefly, rep 1 = 1.16e5; Renilla normaliser, rep 1 = 4939; outcome = inactive
Hug [DRSC16969]: E2F firefly, rep 1 = 1.45e5; Renilla normaliser, rep 1 = 6918; outcome = inactive
CG42362 + CG42363 [DRSC04265]: E2F firefly, rep 1 = 83640; Renilla normaliser, rep 1 = 3360; outcome = inactive
Dus4 [DRSC02066]: E2F firefly, rep 1 = 79980; Renilla normaliser, rep 1 = 4039; outcome = inactive
CG17475 [DRSC15238]: E2F firefly, rep 1 = 1.31e5; Renilla normaliser, rep 1 = 6566; outcome = inactive
CG18011 [DRSC06697]: E2F firefly, rep 1 = 2749; Renilla normaliser, rep 1 = 220; outcome = inactive
CG18011 [DRSC06706]: E2F firefly, rep 1 = 1.59e5; Renilla normaliser, rep 1 = 5374; outcome = inactive
Cyt-c1 [DRSC10447]: E2F firefly, rep 1 = 80571; Renilla normaliser, rep 1 = 3820; outcome = inactive
CG11149 [DRSC02130]: E2F firefly, rep 1 = 1.39e5; Renilla normaliser, rep 1 = 5100; outcome = inactive
ida [DRSC08163]: E2F firefly, rep 1 = 1.03e5; Renilla normaliser, rep 1 = 4298; outcome = inactive
CG17754 [DRSC18131]: E2F firefly, rep 1 = 7059; Renilla normaliser, rep 1 = 784; outcome = inactive
CG4597 [DRSC10432]: E2F firefly, rep 1 = 88234; Renilla normaliser, rep 1 = 3717; outcome = inactive
Ccdc58 [DRSC10218]: E2F firefly, rep 1 = 78755; Renilla normaliser, rep 1 = 3589; outcome = inactive
CG14442 [DRSC17935]: E2F firefly, rep 1 = 7034; Renilla normaliser, rep 1 = 864; outcome = inactive
boil [DRSC17872]: E2F firefly, rep 1 = 1.06e5; Renilla normaliser, rep 1 = 5408; outcome = inactive
CG8299 [DRSC07139]: E2F firefly, rep 1 = 1.39e5; Renilla normaliser, rep 1 = 4709; outcome = inactive
CG4286 [DRSC04459]: E2F firefly, rep 1 = 99981; Renilla normaliser, rep 1 = 4665; outcome = inactive
CG13833 [DRSC14683]: E2F firefly, rep 1 = 1.17e5; Renilla normaliser, rep 1 = 6811; outcome = inactive
CG42755 (retired record) [DRSC09105]: E2F firefly, rep 1 = 1.29e5; Renilla normaliser, rep 1 = 5030; outcome = inactive
CG42755 (retired record) [DRSC09106]: E2F firefly, rep 1 = 1.33e5; Renilla normaliser, rep 1 = 5104; outcome = inactive
oys [DRSC05203]: E2F firefly, rep 1 = 1.22e5; Renilla normaliser, rep 1 = 4599; outcome = inactive
oys [DRSC06751]: E2F firefly, rep 1 = 2742; Renilla normaliser, rep 1 = 209; outcome = inactive
Tbcb [DRSC06067]: E2F firefly, rep 1 = 72403; Renilla normaliser, rep 1 = 3275; outcome = inactive
CG14826 [DRSC10197]: E2F firefly, rep 1 = 1.01e5; Renilla normaliser, rep 1 = 4200; outcome = inactive
CG42580 [DRSC20397]: E2F firefly, rep 1 = 86994; Renilla normaliser, rep 1 = 2966; outcome = inactive
CG18324 [DRSC06721]: E2F firefly, rep 1 = 3194; Renilla normaliser, rep 1 = 202; outcome = inactive

Entries listed so far whose gene name starts with O or o (2):
oys [DRSC05203]: E2F firefly, rep 1 = 1.22e5; Renilla normaliser, rep 1 = 4599; outcome = inactive
oys [DRSC06751]: E2F firefly, rep 1 = 2742; Renilla normaliser, rep 1 = 209; outcome = inactive
